At least one structure is not confirmed: it was looked up by name or label, or the drawing left a doubt.
System: M.tb-lux
Type: cell-based, Mycobacterium tuberculosis
Conditions: 10 μM ABT-199 alone, donor 2, 6 days

SMILES: CC1(C)CCC(CN2CCN(c3ccc(C(=O)NS(=O)(=O)c4ccc(NCC5CCOCC5)c([N+](=O)[O-])c4)c(Oc4cnc5[nH]ccc5c4)c3)CC2)=C(c2ccc(Cl)cc2)C1 [ABT-199, venetoclax]
- M.tb growth in human MDMs (luciferase): reduced M.tb growth

Reference: patent publication US20240180929A1, “TREATMENT OF INFECTIOUS DISEASES USING BCL-2 FAMILY PROTEIN INHIBITORS” (TEXAS BIOMEDICAL RESEARCH INSTITUTE, priority 2020, published 2024)
